## Primary screen of a compound library

Data taken from ChEMBL document CHEMBL3988442, “University of Dundee, Small-Polar-MMV Screening Library” (2021).

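Viability assay of Plasmodium falciparum sporozoites; the read-out is not stated. The concentration is filed as 10 mM, unlikely as a test dose, so the dose is not known. Higher reads as lower viability (inferred: compounds with an IC50 in retests scored well above the rest). Strong results were mostly tested again. Size under these conditions: about 34,000 compounds, about 280 of them at 50% or above in at least one test.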

Results are given as percent effect. The record does not define 0% and 100%; most values in the screen are far below 50% and negative numbers occur (in some assays of this library far below -100). The compounds are a random part of those screened. Two or more numbers in one place are separate tests of the same structure; such repeats can differ widely.

For CN(C)CCN1CCC2(CCN(C(=O)c3cccnc3)CC2)C1=O the result was -5.776%.
For Cc1cnn(C2CCCN(C(=O)Cc3ccc4c(c3)CCO4)C2)c1 (configuration not stated) the result was 8.413%.
For CC(C)(C)c1cn(CC2CCCN(c3cnc4ccccc4n3)C2)nn1 (configuration not stated) the result was -20.86% and -1.002%.
For CC(=O)N(Cc1noc(C)n1)C1CCN(CCOc2ccccc2)C1 (configuration not stated) the result was 5.333%.
For O=C(O)C(F)(F)F.[H][C@]12CCN(c3ncccn3)[C@@]1([H])CC[C@H](COCc1csc(C)n1)O2 the result was 6.337%.
For CCN(Cc1ccccc1)C(=O)CN1CCCC(Cn2cncn2)C1 (configuration not stated) the result was 2.526%.
For CN(Cc1ccncc1)CC(c1cccs1)N1CCOCC1 (configuration not stated) the result was 4.929%.
For Cc1cc(C(=O)N[C@H]2CC[C@@]3(CCC(=O)N3)CC2)no1 the result was -2.053%.
For Nc1nccc(N2CCC(Cc3ccccc3Cl)(C(=O)O)CC2)n1 the result was -1.529%.
For O=C1CCCCCN1CCC(=O)N1CCCC(c2ccn[nH]2)C1 (configuration not stated) the result was -4.142%.
For CC(C)CN1C(=O)C2(CCN(Cc3ccsc3)C2)c2ccccc21.O=C(O)C(F)(F)F (configuration not stated) the result was 9.758%.
For CS(=O)(=O)NC1CCCN(C(=O)NCc2cc[nH]n2)C1 (configuration not stated) the result was 4.624%.
For COc1ccccc1C(NC(=O)NC1CC1)c1noc(C)n1 (configuration not stated) the result was -2.336%.
For O=C1CCOC[C@]2(CN(Cc3ccccc3)C[C@H]2c2ccccc2F)N1 the result was -2.283%.
For CN(CCCNC(=O)C1CCc2cn[nH]c2C1)c1ccccc1 (configuration not stated) the result was 14.21%.
For [H][C@@]12CCN(S(=O)(=O)C3CC3)[C@]1([H])CC[C@@H](c1nc(C)no1)O2 the result was -9.47%.
For COc1ccccc1C(O)CNC(=O)NCc1csc(C)n1 (configuration not stated) the result was -3.209% and 5.09% and 6.776%.
For Cc1ccc(CN2CC[C@H](O)[C@@H](n3ccc(=O)[nH]c3=O)CC2)cc1 the result was 4.898%.
For Cn1c(=O)c2cc(C(=O)NCCOCC(F)(F)F)ccc2n(C)c1=O the result was 16.17%.
For Cc1nnc(-c2cccc(C#N)c2)n1C1CCN(C(C)C)C1=O (configuration not stated) the result was 0%.
For Cc1cccc(OCCN2CCN(Cc3noc(C)n3)CC2)c1 the result was 9.964%.
For CC(C)c1nc2n(n1)CC(NCc1ncc(-c3ccccc3)o1)CC2 (configuration not stated) the result was -10.17%.
For Cc1cnccc1N1CCCN(C(=O)CCCc2cn[nH]c2)CC1 the result was -14.52%.
For O=C(O)C(F)(F)F.[H][C@]12CCCN(Cc3ccc(C)s3)[C@@]1([H])CN(C(=O)c1ccco1)C2 the result was -11.92%.
For N#Cc1cc2c(nc1O)CCCCC2 the result was 16.36%.
For Cc1ccc(CN2Cc3nnn(C)c3C(COCCN(C)C)C2)s1.O=C(O)C(F)(F)F.O=C(O)C(F)(F)F (configuration not stated) the result was -4.844%.
For CCN1CCCN(C(=O)c2cnc(OC(C)C)c(Cl)c2)CC1 the result was -11.88%.
For CC(=O)c1cccc(NC(=O)COc2c(C)n(C)ccc2=O)c1 the result was -51.54%.
For O=C(CN1CCCCC1=O)N1CCC2(CC1)[C@H](O)C[C@@H]2O the result was -24.46%.
For Cn1cc(CCNCC2CNc3ccnn3C2)cn1 (configuration not stated) the result was 2.558%.
For O=C(O)C(F)(F)F.[H][C@]12C[C@H](C(=O)NC)N(C(C)=O)[C@@]1([H])CN(Cc1c(C)noc1C)C2 the result was 6.048%.
For O=C(NCCn1ccnc1)N1CCCC1c1cccs1 (configuration not stated) the result was -11.04%.
For O=C(O)C(F)(F)F.[H][C@@]12CCN(c3cccnc3)C[C@]1([H])CN(C(=O)c1ccsc1)C2 the result was 9.933%.
For CN(Cc1ccc2c(c1)OCO2)C(=O)c1ccc(C2CCCNC2)cc1 (configuration not stated) the result was -11.85%.

For reference, 2 entries once more:

Compound	percent effect
[H][C@@]12CCN(S(=O)(=O)C3CC3)[C@]1([H])CC[C@@H](c1nc(C)no1)O2	-9.47
CC(C)CN1C(=O)C2(CCN(Cc3ccsc3)C2)c2ccccc21.O=C(O)C(F)(F)F (configuration not stated)	9.758